Results taken from patent publication US20110071204A1, “PERCUTANEOUS ABSORPTION PREPARATION” (KYORIN PHARMACEUTICAL CO., LTD., priority 2005, published 2011).
For at least one compound, name, drawing or mass did not settle the structure.

Tests used:
[1] = test system: airway contraction induced by methacholine; assay: Airway contraction measuring method (Konzett & Rossler), methacholine-induced; assay type: in vivo, guinea pig; settings: 0.03, 0.1 and 0.3 μg/kg/min
Protocol: Male Std:Hartley guinea pigs (Japan SLC Inc., week of age at the time of use: 6 weeks of age, from 340.6 to 488.0 g in body weight) were anesthetized with urethane, and a canula was inserted into the trachea. The trachea canula was connected to a quantitative artificial ventilator, and under artificial respiration, a catheter was indwelled in the left jugular vein. Measurement of the airway contraction was carried out by the Konzett & Rossler method. Guinea pigs were subjected to artificial respiration at a ventilation of 4 ml/animal and a ventilation frequency of 70 times/minute. Changes in the ventilation pressure were measured by a transducer (UGO BASILE, BRONCHOSPASM TRANSDUCER 7020) connected to the sub-bypass of the trachea canula. By inserting a catheter into the jugular vein, imidafenacin was administered by continuous intravenous infusion (100 μl/kg/min). After 75 minutes of the start of administration of the agent liquid, methacholine (10 μg/kg) was intravenously administered to induce airway contraction. The airway contraction inhibitory activity was evaluated using peak height of the airway contraction induced by methacholine as the index.
In this connection, the blood concentration measurement was carried out by LC/MS/MS using blood plasma.

[2] = test system: bladder contraction induced by methacholine; assay type: in vivo, guinea pig; settings: 0.03, 0.1 and 0.3 μg/kg/min
Description: Male Std:Hartley guinea pigs (Japan SLC Inc., week of age at the time of use: 6 weeks of age, from 340.6 to 488.0 g in body weight) were anesthetized with urethane. The abdominal region was subjected to median incision, and then both sides of ureters were ligated in order to prevent inflow of urine from the kidney to the bladder. After ligation of the bladder cervix, a catheter for intravesical pressure measurement use was inserted from the bladder apex and fixed by ligation. Thereafter, in order to measure intravesical pressure, 1 ml of physiological saline was injected into the bladder. Next, a catheter was indwelled in the left jugular vein. The intravesical pressure was measured via an amplifier for strain pressure use (Nihon Kohden Corporation, CARRIER ANPLIFIER AP-601G) by connecting the catheter for intravesical pressure measuring use to a pressure transducer (Nihon Kohden Corporation, LIFE KIT DX-100). By inserting a catheter into the jugular vein, imidafenacin was administered by continuous intravenous infusion (100 μl/kg/min). After 75 minutes of the commencement of administration of the agent liquid, methacholine (10 μg/kg) was intravenously administered to induce bladder contraction. The bladder contraction inhibitory activity was evaluated using peak height of the bladder contraction induced by methacholine as the index. […]

SMILES: Cc1nccn1CCC(C(N)=O)(c1ccccc1)c1ccccc1 [imidafenacin, 4-(2-methyl-1-imidazolyl)-2,2-diphenylbutylamide]
- airway contraction inhibitory activity (in words) [1]: dose-dependent inhibitory activity
- bladder contraction inhibitory activity (in words) [2]: dose-dependent inhibitory activity
